The target of experiment [1] is tomato PAD4 (SlPAD4), LexA BD fusion for yeast two-hybrid (tomato (Solanum lycopersicum)). The experiment in a line: two-hybrid.
Experiment [2] concerns the target potato PAD4 (StPAD4), LexA BD fusion for yeast two-hybrid (potato (Solanum tuberosum)). The experiment in a line: two-hybrid.
Experiment [3] concerns the target 3xFLAG-SlEDS1 (pAtEDS1:3xFLAG-SlEDS1) (tomato (Solanum lycopersicum)). The experiment is described as follows: co-IP.
The target in experiment [4] is 3xFLAG-HvEDS1 (pAtEDS1:3xFLAG-HvEDS1) (barley (Hordeum vulgare)). The experiment in a line: co-IP.

These are yes or no findings as the source states them, for the method shown. For some of these results: In cells and extracts the contact can be indirect. For some of these results: Binding can be weak; no strength is given. Sequences can lack the tags named with a protein.

B1: Arabidopsis EDS1 (AtEDS1), Gal4 AD fusion for yeast two-hybrid (protein, UniProt Q9XF23 1-623)
chain: MAFEALTGINGDLITRSWSASKQAYLTERYHKEEAGAVVIFAFQPSFSEKDFFDPDNKSSFGEIKLNRVQFPCMRKIGKGDVATVNEAFLKNLEAVIDPRTSFQASVEMAVRSRKQIVFTGHSSGGATAILATVWYLEKYFIRNPNVYLEPRCVTFGAPLVGDSIFSHALGREKWSRFFVNFVTRFDIVPRITLARKASVEETLPHVLAQLDPRNSSVQESEQRITEFYTSVMRDTSTVANQAVCELTGSAEAILETLSSFLELSPYRPAGTFVFSTEKRLVAVNNSDAILQMLFYTCQASDEQEWSLIPFRSIRDHHSYEELVQSMGMKLFNHLDGENSIESSLNDLGVSTRGRQYVQAALEEEKKRVENQKKIIQVIQQERFLKKLAWIEDEYKPKCQAHKNGYYDSFKVSNEENDFKANVKRAELAGVFDEVLGLLKKCQLPDEFEGDIDWIKLATRYRRLVEPLDIANYHRHLKNEDTGPYMKRGRPTRYIYAQRGYEHHILKPNGMIAEDVFWNKVNGLNLGLQLEEIQETLKNSGSECGSCFWAEVEELKGKPYEEVEVRVKTLEGMLREWITAGEVDEKEIFLEGSTFRKWWITLPKNHKSHSPLRDYMMDEITDT
For B1, the binding result in experiment [1] and in experiment [2] was “no binding” in each case.

B2: YFP-AtPAD4 (pAtPAD4:YFP-AtPAD4) (protein, UniProt Q9S745 1-541)
chain: MDDCRFETSELQASVMISTPLFTDSWSSCNTANCNGSIKIHDIAGITYVAIPAVSMIQLGNLVGLPVTGDVLFPGLSSDEPLPMVDAAILKLFLQLKIKEGLELELLGKKLVVITGHSTGGALAAFTALWLLSQSSPPSFRVFCITFGSPLLGNQSLSTSISRSRLAHNFCHVVSIHDLVPRSSNEQFWPFGTYLFCSDKGGVCLDNAGSVRLMFNILNTTATQNTEEHQRYGHYVFTLSHMFLKSRSFLGGSIPDNSYQAGVALAVEALGFSNDDTSGVLVKECIETATRIVRAPILRSAELANELASVLPARLEIQWYKDRCDASEEQLGYYDFFKRYSLKRDFKVNMSRIRLAKFWDTVIKMVETNELPFDFHLGKKWIYASQFYQLLAEPLDIANFYKNRDIKTGGHYLEGNRPKRYEVIDKWQKGVKVPEECVRSRYASTTQDTCFWAKLEQAKEWLDEARKESSDPQRRSLLREKIVPFESYANTLVTKKEVSLDVKAKNSSYSVWEANLKEFKCKMGYENEIEMVVDESDAMET
Regarding B2, the binding entry in experiment [3] was “binds”; in experiment [4], “no binding”.

The values are drawn from doi:10.1101/572826.
